Laboratory results published in patent EP4817631A2 (AbbVie Deutschland GmbH & Co. KG, dated 2026).
Where a chain is given by its changes, count along the chain named. These are yes or no findings as the source states them, for the method shown. Some entries that bind do so weakly or less than the wild type. For part of these data: Sequences can lack the tags named with a protein.

What was measured:
R &D hRGMc-His [1] = target: T1, R &D hRGMc-His (human, UniProt Q6ZVN8 36-400); assay: R&D hRGMc-His ELISA
T1 construct: Bought (R&D) His-tagged human RGMc; also called human RGMc; not shown: His tag
T1 sequence: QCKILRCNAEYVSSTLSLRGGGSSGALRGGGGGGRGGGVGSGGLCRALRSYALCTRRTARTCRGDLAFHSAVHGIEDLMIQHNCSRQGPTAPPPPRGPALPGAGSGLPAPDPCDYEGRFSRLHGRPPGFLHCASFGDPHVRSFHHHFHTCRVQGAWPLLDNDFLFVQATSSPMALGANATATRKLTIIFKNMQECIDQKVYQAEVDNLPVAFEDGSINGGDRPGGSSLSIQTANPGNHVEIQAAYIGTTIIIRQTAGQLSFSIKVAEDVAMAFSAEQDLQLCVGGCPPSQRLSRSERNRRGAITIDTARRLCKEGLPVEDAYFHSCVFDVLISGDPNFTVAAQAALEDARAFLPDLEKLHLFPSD

R &D hRGMc-His [2] = target: T1, R &D hRGMc-His; assay: human RGMc direct ELISA
biotin hRGMa (human) [3] = target: T2, biotin hRGMa (human) (UniProt Q96B86); assay: hRGMa binding ELISA
T2 sequence (chain, biotinylated): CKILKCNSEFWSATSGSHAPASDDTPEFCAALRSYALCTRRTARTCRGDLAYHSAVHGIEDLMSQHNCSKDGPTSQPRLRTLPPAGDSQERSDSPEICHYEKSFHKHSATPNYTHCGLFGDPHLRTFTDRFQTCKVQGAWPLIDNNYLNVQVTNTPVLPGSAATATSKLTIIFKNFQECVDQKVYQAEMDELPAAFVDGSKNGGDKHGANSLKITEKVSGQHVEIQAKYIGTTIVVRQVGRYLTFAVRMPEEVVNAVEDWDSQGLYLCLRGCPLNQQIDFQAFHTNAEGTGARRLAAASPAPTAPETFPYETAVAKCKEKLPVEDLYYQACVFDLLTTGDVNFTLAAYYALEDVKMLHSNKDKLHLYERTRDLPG

biotin hRGMa (human) [4] = target: T2, biotin hRGMa (human); assay: indirect ELISA: antibody captured by anti-human Fc, biotin hRGMa titrated

Measured: binding

B1: h5F9.AM8 (antibody, V domains shown)
VH: EVQLVESGGGLVQPGGSLRLSCAASGFTFSNYGMNWIRQAPGKGLEWIGMIYYDSSEKHYADSVKGRFTISRDNSKNTLYLQMNSLRAEDTAVYYCAKGTTPDYWGQGTMVTVSS
VL: DVVLTQSPLSLPVTLGQPASISCRSSQSLEESDGYTFLHWFQQRPGQSPRLLIYEVSTRFSGVPDRFSGSGSGTDFTLKISRVEAEDVGVYYCFQATHDPLTFGQGTKLEIK
notes: also called RGMA-h5F9AM.8; RGMA-h5F9pJP297/pJP 298 hIgG1/K mut
binds: R &D hRGMc-His [1] | R &D hRGMc-His [2]

B2: h5F9.AM9 (antibody, V domains shown)
VH: B1 VH with L11V, G16R, I37V, I48V, G49A, K98R
VL: B1 VL with E30A, E31D, Y35D, E55A, T58H, L101V
notes: also called RGMA-h5F9AM.9; RGMA-h5F9pJP297/pJP 299 hIgG1/K mut
binds: all assays above
